In PubChem BioAssay AID2685 (National Center for Advancing Translational Sciences (NCATS), 2010) one finds AC50 and cell number change data, which are given here for 40 compounds.

The nature of this test: qHTS Assay for Lipid Storage Modulators in Drosophila S3 Cells.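 For cell number change: cells counted by Cell Tracker Red CMTPX staining in the red channel.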 The following applies: BODIPY lipid droplet fluorescence, 18-24 h; for cell number change: measured here: cell count max response, cells fed with added oleic acid. The procedure, abridged:
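Laser-scanning cytometry quantifies lipid droplet accumulation (500–530 nm total intensity; droplet/cell object ratio) in oleic acid-fed (400 uM added) Drosophila S3 cells treated with a concentration series. 20 uM Triacsin C defined 100% inhibition.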

Where [1] appears, read: measured here: cell number channel AC50, cells fed with added oleic acid.
[2] abbreviates: measured here: lipid fluorescence (Fed channel) AC50, cells fed with added oleic acid.

SMILES strings stand for the structures. This is one part of the list. Shown are side measurements of this screen, not its main read-out; they come without a call. Most of these compounds were active or inconclusive in the main read-out, so they are no random draw. Potencies come from curve fits of mixed quality, noted in brackets.

For `COc1cc(C2C(C#N)=C(N)N(c3cccnc3)C3=C2C(=O)CCC3)ccc1O` (stereo not drawn), the half-maximal activity concentration (AC50) was 6510 nM [rising, single point] under setting [1] and 731 nM [rising, full curve] under setting [2].
Consider `CC1CCN(S(=O)(=O)c2ccc(NC(=O)CCNC(=O)c3ccc(Cl)cc3)cc2)CC1`, for which the cell number change is -48%.
Same read-out and setting: for `O=C1CSC(c2ccccc2[N+](=O)[O-])N1c1ccccc1` (stereo not drawn) the value was 19.1%.
Turning to `CCOC(=O)N1CCC(NC(=O)C(C)n2c3ccccc3c3cnn(C)c(=O)c32)CC1` (stereo not drawn), the cell number change was -2.34%. Moreover, the half-maximal activity concentration (AC50) under setting [1] is 4.61 nM [falling, full curve, poor fit]. For the same compound, the concentration at half-maximal activity (AC50) under setting [2] was 20600 nM [rising, single point].
Consider `CN(CC(=O)Nc1ccccc1Br)C(=O)c1ccccc1OCc1ccc(F)cc1`, for which the cell number change amounted to 18.4%. Also, the AC50 under setting [1] is 580 nM [falling, single point].
On to `CC(=O)N1CCN(C(=O)c2ccc(S(=O)(=O)Nc3ccccc3F)cc2)CC1`, for which the cell number change was -12.3%.
Consider `CC(C)(C)n1ncc2c(=O)n(Cc3ccc(Cl)c(Cl)c3)cnc21`, for which the cell number change is -8.63%.
Still for that read-out and setting: for `COc1cccc(C(CC(=O)Nc2cccc3ccccc23)NC(=O)c2ccccc2)c1` (stereo not drawn) the value was 11%.
For `COc1ccc(CNC(=O)CC(C)S(=O)(=O)c2ccc3c(c2)NC(=O)CO3)cc1` (stereo not drawn), the cell number change turned out to be 16.7%. Under setting [2], the half-maximal activity concentration (AC50) is 23100 nM [rising, single point].
Take `Cc1ccccc1C(=O)N(C)Cc1ccccc1`: the cell number change is -0.135%. Moreover, the half-maximal activity concentration (AC50) under setting [2] is 4110 nM [rising, single point].
On to `c1ccc(CSCc2nc3ccccc3[nH]2)cc1`, for which the cell number change came to 33.3%. Further, the concentration at half-maximal activity (AC50) under setting [1] was 2910 nM [rising, full curve].
Take `CCc1cccc(CC)c1NC(=O)CN1CCc2cc(OC)c(OC)cc2C1`: the cell number change was -3.07%. The AC50 under setting [2] is 23100 nM [falling, single point].
Consider `CCCOc1ccc(CCC(=O)N/N=C/c2ccc([N+](=O)[O-])o2)cc1`, for which the cell number change was -18.5%.
For the compound `O=C(CN1CCCCC1)NC(=O)NC1CCCCC1`, the cell number change stood at 13%.
Same read-out and setting: for `CS(=O)(=O)N1CC(C(=O)O)Oc2ccc(CC(=O)O)cc21` (stereo not drawn) the value was -6.84%.
Consider `CCCNC(=O)c1cccc(Cn2nc(C)c(Br)c2C)c1`, for which the cell number change was determined as 30.5%. For the same compound, the AC50 under setting [1] is 580 nM [rising, partial curve]. Under setting [2], the AC50 is 2060 nM [rising, partial curve].
As for `COc1ccc(N(C)S(=O)(=O)c2cccc(C(=O)NC3CCCCCC3)c2)cc1`, the cell number change was found to be 20.1%.
On to `C=CCNCc1ccc(C(=O)NCCCCCCC)cc1[N+](=O)[O-]`, for which the cell number change was found to be 8.38%. Also, under setting [2], the half-maximal activity concentration (AC50) is 6510 nM [falling, single point].
As to `CCO/N=C(\C)c1c(O)cc(C(C)C)n(-c2ccccc2)c1=O`, the cell number change is -3.45%. The AC50 under setting [1] is 73.1 nM [rising, full curve, poor fit]. Also, the half-maximal activity concentration (AC50) under setting [2] was 6510 nM [rising, partial curve, poor fit].
Take `CC(C)OCC1Cn2c(nc3c2c(=O)n(C)c(=O)n3C)O1` (stereo not drawn): the cell number change is -21.6%. Also, under setting [2], the AC50 was 517 nM [falling, full curve, poor fit].
For the compound `O=[N+]([O-])c1cc(C(F)(F)F)ccc1Oc1cccnc1[N+](=O)[O-]`, the cell number change was -21.6%. The half-maximal activity concentration (AC50) under setting [2] is 3660 nM [falling, full curve, poor fit].
As for `CSc1ccc(C(=O)/C=C/c2ccc(N)cc2)cc1`, the cell number change was -11.7%. Also, under setting [2], the concentration at half-maximal activity (AC50) was 4110 nM [falling, single point].
As for `COc1ccc2ccccc2c1/C=N/NC(=O)c1nnn(-c2nonc2N)c1C(C)C`, the cell number change is -8.73%. Moreover, the AC50 under setting [2] was 580 nM [rising, single point].
As to `CC(NC(=O)Cc1ccsc1)c1ccc(Cl)cc1Cl` (stereo not drawn), the cell number change is -19.7%. The AC50 under setting [2] is 5620 nM [falling, single point].
For `Cc1cccc(Cn2c(C(C)(C)C)cc3cccnc32)c1`, under setting [1], the concentration at half-maximal activity (AC50) is 3660 nM [falling, single point].
As for `CC(=O)c1cccc(NC(=O)COC(=O)COc2c(Cl)cc(Cl)c3ccc(C)nc23)c1`, the cell number change stood at 9.89%. In addition, under setting [2], the half-maximal activity concentration (AC50) was 366 nM [rising, full curve, poor fit].
Take `Cc1cccc(OCc2ccc(C(=O)Nc3cc(C)on3)o2)c1`: the cell number change worked out at 81.9%. Further, under setting [1], the half-maximal activity concentration (AC50) is 8200 nM [rising, partial curve]. In addition, the AC50 under setting [2] was 206 nM [rising, single point].
For the compound `COc1ccc(OC)c(CN2CCCCCC2)c1`, the cell number change was determined as 2.7%.
In the case of `CCNC(=S)N(CCCO)Cc1cc2cc3c(cc2[nH]c1=O)OCCO3`, the cell number change is -12.2%. Besides, the AC50 under setting [2] is 5170 nM [falling, partial curve].
Consider `N=C1c2ccccc2CN1NC(=O)c1cccc(S(=O)(=O)N2CCOCC2)c1`, for which the cell number change was 5.7%. Further, the AC50 under setting [2] is 164 nM [rising, full curve, poor fit].
On to `c1ccc(-c2nnc(CSc3ccc4c(c3)OCCO4)o2)cc1`, for which the cell number change was found to be 21.9%. Besides, the concentration at half-maximal activity (AC50) under setting [1] was 3660 nM [rising, single point]. Also, the AC50 under setting [2] was 3260 nM [rising, single point].
For the compound `Cc1ccc(/C=N/n2c(-c3cccnc3)n[nH]c2=S)o1`, the cell number change was -39.4%. In addition, the AC50 under setting [1] was 1840 nM [falling, partial curve, poor fit].
In the case of `COc1ccc(CC(=O)n2nc(-c3cccnc3)nc2N)cc1`, the cell number change was determined as 18.1%. The AC50 under setting [2] is 2060 nM [rising, single point].
Turning to `CN1CCN(S(=O)(=O)CC2(C)C3CCC2(C)C(=O)C3Br)CC1` (stereo not drawn), the cell number change was -44.6%. Besides, the concentration at half-maximal activity (AC50) under setting [1] is 103 nM [falling, full curve, poor fit].
For `CC(/C=C(\NC(=O)c1ccccc1)C(=O)N=Nc1c(O)[nH]c2ccc(C)cc12)=C\c1ccccc1`, the cell number change was determined as 36.6%. The AC50 under setting [1] is 206 nM [rising, full curve]. Further, the concentration at half-maximal activity (AC50) under setting [2] is 1640 nM [rising, full curve].
For `Cc1cc(NC(=O)CSc2nc(=O)n(CCN(C)C)c3c2CCCC3)no1`, the cell number change was -2.88%.
For the compound `COc1cccc(C(O)c2nc3ccccc3n2C(C)C)c1` (stereo not drawn), the cell number change was determined as 14.5%. Also, the half-maximal activity concentration (AC50) under setting [1] is 1160 nM [falling, partial curve]. Also, under setting [2], the concentration at half-maximal activity (AC50) is 6510 nM [falling, single point].
For the compound `C=CCn1c(C)cc(C(=O)CSc2nnc(-c3cccc(S(=O)(=O)N(CC)CC)c3)o2)c1C`, the AC50 under setting [2] is 820 nM [rising, single point].
Same read-out and setting: for `COc1ccc(-n2cnnc2SCC(=O)c2ccc(S(=O)(=O)N3CCOCC3)cc2)cc1` the value was 580 nM [rising, full curve, poor fit].
Turning to `O=[N+]([O-])c1cc(/C=N/n2c(-c3cccnc3)n[nH]c2=S)ccc1Cl`, the cell number change was -3.5%. Besides, the AC50 under setting [2] is 29100 nM [falling, single point].

One may read the AC50 as the concentration at which the activity in the assay is half-maximal. Low readings indicate greater potency, high ones weaker potency.
